According to the supplement of paper PMC12819154, “High-throughput peptide-centric local stability assay extends protein–ligand identification to membrane proteins, tissues and bacteria” (Nature Structural & Molecular Biology, 2025):
The list shows a part of the results. Most entries show no effect beyond the scatter of the controls.

The chains behind the UniProt entries cited, without tags or fusion partners. Where a name states a change or a piece, a line headed by the entry shows the natural chain unless it says otherwise.
UniProt Q91YT2: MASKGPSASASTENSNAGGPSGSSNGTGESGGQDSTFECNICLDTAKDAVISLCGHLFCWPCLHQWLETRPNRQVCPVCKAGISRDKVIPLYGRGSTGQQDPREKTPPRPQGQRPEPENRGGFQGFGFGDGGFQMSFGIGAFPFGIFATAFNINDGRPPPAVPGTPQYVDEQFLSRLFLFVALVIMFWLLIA
UniProt Q91VM9: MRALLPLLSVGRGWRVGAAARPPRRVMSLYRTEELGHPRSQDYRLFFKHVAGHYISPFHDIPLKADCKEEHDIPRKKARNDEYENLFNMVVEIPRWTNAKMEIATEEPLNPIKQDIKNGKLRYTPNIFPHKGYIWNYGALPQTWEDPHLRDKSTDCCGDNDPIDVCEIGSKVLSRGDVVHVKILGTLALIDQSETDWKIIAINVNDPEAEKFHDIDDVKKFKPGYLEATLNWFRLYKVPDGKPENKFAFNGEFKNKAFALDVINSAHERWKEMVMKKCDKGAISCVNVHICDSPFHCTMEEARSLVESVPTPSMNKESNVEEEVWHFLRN
UniProt Q91X58: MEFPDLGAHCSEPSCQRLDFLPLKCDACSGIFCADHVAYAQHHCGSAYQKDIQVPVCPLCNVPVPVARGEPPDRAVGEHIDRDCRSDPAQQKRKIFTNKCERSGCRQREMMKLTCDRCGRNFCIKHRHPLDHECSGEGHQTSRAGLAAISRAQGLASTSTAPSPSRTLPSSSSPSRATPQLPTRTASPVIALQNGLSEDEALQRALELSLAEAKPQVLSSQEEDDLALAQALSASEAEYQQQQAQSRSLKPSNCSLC
UniProt Q91VA0: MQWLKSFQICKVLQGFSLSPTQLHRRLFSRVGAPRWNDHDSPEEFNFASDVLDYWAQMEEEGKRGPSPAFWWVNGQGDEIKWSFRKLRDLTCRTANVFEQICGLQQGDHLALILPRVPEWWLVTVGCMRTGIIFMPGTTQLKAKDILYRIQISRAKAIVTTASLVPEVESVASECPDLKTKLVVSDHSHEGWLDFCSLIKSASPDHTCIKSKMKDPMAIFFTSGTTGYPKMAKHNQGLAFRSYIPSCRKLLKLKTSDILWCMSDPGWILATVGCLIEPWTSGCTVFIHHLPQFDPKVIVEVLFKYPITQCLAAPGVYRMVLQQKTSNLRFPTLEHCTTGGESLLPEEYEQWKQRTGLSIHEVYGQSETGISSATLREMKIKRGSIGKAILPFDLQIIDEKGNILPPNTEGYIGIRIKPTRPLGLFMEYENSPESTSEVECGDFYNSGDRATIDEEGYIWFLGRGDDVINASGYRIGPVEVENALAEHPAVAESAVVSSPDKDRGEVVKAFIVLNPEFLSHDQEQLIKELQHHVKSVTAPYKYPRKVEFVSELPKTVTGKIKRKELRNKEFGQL
UniProt Q91VZ6: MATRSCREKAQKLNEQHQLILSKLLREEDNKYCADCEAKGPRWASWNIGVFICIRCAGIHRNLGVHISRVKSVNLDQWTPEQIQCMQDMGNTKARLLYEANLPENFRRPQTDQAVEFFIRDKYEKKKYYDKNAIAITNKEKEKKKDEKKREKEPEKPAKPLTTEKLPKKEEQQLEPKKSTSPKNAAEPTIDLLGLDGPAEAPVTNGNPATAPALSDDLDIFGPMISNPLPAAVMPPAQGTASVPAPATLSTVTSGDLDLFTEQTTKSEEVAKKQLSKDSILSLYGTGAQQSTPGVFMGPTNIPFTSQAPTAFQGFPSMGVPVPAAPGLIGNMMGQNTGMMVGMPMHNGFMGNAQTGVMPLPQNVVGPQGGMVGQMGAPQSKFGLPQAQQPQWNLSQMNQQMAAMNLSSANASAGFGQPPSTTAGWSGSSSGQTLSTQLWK
UniProt Q922K7: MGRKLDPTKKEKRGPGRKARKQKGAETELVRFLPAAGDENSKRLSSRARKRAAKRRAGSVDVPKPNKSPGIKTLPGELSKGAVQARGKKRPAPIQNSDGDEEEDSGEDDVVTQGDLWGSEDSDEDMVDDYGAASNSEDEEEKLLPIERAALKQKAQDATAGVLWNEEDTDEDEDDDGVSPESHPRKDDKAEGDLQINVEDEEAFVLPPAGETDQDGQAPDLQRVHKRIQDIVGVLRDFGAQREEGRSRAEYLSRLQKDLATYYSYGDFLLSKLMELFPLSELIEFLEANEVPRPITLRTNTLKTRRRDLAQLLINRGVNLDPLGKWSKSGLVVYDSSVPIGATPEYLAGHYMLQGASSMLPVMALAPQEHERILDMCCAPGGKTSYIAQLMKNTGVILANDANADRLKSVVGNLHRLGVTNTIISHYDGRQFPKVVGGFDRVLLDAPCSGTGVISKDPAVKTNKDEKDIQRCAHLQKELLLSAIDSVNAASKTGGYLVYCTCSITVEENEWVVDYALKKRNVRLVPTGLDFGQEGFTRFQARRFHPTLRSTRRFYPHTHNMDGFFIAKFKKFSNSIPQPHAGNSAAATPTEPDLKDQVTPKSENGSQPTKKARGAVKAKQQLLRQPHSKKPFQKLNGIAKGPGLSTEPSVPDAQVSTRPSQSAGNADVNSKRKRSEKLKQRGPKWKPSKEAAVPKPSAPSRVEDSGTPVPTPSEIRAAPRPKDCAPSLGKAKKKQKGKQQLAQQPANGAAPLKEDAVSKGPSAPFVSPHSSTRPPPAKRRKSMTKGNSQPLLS
UniProt Q91YN9: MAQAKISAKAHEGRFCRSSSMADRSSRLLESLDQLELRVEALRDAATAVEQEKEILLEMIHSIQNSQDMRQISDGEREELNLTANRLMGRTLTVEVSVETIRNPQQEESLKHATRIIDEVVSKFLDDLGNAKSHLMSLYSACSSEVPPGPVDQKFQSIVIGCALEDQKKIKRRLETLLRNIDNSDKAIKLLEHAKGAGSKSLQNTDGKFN
UniProt Q91XD7: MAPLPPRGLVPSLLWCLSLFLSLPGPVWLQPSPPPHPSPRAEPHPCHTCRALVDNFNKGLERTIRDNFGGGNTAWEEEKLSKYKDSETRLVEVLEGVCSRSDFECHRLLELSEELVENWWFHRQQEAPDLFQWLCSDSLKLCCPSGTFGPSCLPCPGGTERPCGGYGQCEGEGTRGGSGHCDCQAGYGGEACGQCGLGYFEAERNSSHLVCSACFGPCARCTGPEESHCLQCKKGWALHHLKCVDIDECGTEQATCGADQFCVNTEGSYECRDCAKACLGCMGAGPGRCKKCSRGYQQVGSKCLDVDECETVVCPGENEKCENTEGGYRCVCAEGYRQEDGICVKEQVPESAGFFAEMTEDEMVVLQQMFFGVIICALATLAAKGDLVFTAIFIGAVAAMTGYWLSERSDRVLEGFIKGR
UniProt Q91Y97: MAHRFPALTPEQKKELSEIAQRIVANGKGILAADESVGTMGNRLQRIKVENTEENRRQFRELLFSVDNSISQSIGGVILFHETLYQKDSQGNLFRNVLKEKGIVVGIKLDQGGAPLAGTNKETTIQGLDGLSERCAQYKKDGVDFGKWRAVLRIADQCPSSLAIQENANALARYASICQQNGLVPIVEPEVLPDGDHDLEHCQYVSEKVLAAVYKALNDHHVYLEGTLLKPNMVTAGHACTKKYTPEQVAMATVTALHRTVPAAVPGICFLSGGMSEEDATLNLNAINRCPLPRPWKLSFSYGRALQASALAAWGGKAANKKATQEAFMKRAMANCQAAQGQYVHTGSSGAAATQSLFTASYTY
UniProt Q8VEH6: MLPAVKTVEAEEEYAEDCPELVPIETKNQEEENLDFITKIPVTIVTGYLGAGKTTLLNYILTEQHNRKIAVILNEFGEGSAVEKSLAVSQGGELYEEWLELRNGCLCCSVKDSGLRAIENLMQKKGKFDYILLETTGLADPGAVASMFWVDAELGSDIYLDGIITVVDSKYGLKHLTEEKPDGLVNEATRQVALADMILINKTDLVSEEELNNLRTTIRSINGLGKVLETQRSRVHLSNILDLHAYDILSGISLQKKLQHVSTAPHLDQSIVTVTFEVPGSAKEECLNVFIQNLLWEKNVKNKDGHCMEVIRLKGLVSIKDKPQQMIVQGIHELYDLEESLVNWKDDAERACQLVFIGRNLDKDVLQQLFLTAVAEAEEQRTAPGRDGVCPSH
UniProt Q8VDJ3: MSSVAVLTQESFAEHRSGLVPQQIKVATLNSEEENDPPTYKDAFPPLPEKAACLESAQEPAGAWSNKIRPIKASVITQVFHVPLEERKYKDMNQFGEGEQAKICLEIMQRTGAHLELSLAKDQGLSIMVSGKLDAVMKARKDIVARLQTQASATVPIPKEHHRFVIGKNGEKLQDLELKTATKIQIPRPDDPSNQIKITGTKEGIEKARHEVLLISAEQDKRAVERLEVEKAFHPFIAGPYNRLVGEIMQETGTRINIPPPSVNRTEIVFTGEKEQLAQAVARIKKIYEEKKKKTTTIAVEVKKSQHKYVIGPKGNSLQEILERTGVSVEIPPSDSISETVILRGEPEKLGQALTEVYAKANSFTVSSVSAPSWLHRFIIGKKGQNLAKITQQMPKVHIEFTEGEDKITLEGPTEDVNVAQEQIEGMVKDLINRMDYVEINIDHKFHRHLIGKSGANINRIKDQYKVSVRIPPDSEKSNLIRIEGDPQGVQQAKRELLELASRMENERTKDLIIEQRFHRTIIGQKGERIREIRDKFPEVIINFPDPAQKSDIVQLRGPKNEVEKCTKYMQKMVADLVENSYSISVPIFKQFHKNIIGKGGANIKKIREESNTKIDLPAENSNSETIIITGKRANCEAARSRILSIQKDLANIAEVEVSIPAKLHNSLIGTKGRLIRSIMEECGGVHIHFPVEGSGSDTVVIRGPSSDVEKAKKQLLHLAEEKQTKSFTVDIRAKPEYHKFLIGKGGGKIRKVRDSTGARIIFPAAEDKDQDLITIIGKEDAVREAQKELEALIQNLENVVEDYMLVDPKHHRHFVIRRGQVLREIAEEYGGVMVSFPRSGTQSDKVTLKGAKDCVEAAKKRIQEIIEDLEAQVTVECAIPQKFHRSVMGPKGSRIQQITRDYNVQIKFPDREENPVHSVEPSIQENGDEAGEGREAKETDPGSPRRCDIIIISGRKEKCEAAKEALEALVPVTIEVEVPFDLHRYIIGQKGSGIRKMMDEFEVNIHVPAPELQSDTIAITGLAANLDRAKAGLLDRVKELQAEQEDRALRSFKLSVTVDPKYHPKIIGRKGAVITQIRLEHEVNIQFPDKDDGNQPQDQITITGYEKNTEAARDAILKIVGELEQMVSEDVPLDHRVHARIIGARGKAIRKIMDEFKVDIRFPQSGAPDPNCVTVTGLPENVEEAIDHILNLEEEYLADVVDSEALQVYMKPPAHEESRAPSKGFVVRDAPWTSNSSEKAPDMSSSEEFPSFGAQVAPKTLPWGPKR
UniProt Q8VD04: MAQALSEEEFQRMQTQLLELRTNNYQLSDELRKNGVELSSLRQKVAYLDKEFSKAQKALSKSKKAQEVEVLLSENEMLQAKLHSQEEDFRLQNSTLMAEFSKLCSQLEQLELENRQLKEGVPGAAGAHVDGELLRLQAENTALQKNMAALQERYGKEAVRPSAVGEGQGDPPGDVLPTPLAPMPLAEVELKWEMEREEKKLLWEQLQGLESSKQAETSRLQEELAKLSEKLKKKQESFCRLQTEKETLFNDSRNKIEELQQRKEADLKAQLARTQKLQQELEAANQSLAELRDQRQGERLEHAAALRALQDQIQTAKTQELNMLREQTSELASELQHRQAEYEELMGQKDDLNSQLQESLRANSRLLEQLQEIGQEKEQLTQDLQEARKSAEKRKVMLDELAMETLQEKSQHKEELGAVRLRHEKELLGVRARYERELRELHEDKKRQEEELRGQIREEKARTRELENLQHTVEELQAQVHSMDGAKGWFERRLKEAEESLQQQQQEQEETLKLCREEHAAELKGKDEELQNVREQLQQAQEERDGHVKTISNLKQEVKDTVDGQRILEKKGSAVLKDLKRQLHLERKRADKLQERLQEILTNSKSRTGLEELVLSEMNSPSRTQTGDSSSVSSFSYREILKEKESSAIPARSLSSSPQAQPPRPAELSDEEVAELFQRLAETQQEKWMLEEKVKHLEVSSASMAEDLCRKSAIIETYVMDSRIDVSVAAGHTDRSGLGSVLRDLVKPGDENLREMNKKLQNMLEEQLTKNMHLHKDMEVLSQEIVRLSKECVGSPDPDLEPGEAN
UniProt Q91Z53: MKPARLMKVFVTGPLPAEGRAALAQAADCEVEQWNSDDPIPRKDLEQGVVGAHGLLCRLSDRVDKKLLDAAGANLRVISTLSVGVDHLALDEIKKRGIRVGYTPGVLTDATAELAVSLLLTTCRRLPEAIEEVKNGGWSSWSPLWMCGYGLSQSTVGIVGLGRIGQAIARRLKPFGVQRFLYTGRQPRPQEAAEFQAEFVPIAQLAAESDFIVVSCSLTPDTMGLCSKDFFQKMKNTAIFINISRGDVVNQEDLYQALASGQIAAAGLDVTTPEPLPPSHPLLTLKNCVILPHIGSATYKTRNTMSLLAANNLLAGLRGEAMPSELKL
UniProt Q91XV3: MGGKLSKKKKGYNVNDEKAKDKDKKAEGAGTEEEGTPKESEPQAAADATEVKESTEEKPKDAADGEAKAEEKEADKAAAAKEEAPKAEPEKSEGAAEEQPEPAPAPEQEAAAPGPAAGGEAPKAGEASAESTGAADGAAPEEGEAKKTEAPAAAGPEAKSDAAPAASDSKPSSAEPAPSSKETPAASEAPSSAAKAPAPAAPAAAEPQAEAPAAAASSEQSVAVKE

compound: CN[C@@H]1C[C@H]2O[C@@](C)([C@@H]1OC)n1c3ccccc3c3c4c(c5c6ccccc6n2c5c31)C(=O)NC4 [staurosporine]; assay: log2 fold change of pooled soluble protein (PISA), ligand vs vehicle (log2 ratio); higher = more thermally stabilized; details: ligand concentration: 20 uM; assay format: PISA pool 52.9/55.5/58.6 C

Row | Target | log2 fold change of pooled soluble protein
1 | UniProt Q91ZP6 | 0.204
2 | UniProt Q91YT2 | 0.0122
3 | UniProt Q91VM9 | 0.0328
4 | UniProt Q91X58 | -0.108
5 | UniProt Q91WG2 | 0.145
6 | UniProt Q91VA0 | 0.018
7 | UniProt Q8VCN5 | -0.031
8 | UniProt Q924T3 | 0.0534
9 | UniProt Q91VZ6 | -0.123
10 | UniProt Q924Z4 | -0.251
11 | UniProt Q922K7 | 0.0128
12 | UniProt Q91WP0 | 0.194
13 | UniProt Q91X83 | -0.0162
14 | UniProt Q91XD4 | -0.122
15 | UniProt Q8VDP4 | -0.212
16 | UniProt Q91WK2 | -0.0174
17 | UniProt Q920L1 | -0.132
18 | UniProt Q91YN9 | 0.124
19 | UniProt Q99J99 | 0.0235

Row | Target | log2 fold change of pooled soluble protein
20 | UniProt Q91XD7 | -0.00598
21 | UniProt Q8VCR2 | -0.0261
22 | UniProt Q91XC8 | 0.437
23 | UniProt Q91Y97 | 0.102
24 | UniProt Q8VEB4 | -0.0722
25 | UniProt Q91YX0 | -0.187
26 | UniProt Q8VDZ4 | -0.0453
27 | UniProt Q8VHK9 | 0.0699
28 | UniProt Q91XU3 | -0.21
29 | UniProt Q8VEH6 | -0.275
30 | UniProt Q921M7 | 0.259
31 | UniProt Q8VDJ3 | -0.0571
32 | UniProt Q8VD04 | -0.12
33 | UniProt Q91W10 | 0.263
34 | UniProt Q91WS4 | -0.364
35 | UniProt Q91Z53 | 0.0482
36 | UniProt Q91Z67 | -0.129
37 | UniProt Q91XV3 | -0.0729

A stretch from the list above:
Row | Target | log2 fold change of pooled soluble protein
21 | UniProt Q8VCR2 | -0.0261
22 | UniProt Q91XC8 | 0.437
